# No constants are given. Whether binding was seen depends on the method and setting. For some assays here: Binding seen in cells or lysates may run through a third protein. Some results given as binding are weak or reduced against the parent protein; the word gives no strength. For some assays here: Sequences can lack the tags named with a protein.
# Chains of the proteins cited; added tags and fusions are not shown.
# UniProt Q9NQU5: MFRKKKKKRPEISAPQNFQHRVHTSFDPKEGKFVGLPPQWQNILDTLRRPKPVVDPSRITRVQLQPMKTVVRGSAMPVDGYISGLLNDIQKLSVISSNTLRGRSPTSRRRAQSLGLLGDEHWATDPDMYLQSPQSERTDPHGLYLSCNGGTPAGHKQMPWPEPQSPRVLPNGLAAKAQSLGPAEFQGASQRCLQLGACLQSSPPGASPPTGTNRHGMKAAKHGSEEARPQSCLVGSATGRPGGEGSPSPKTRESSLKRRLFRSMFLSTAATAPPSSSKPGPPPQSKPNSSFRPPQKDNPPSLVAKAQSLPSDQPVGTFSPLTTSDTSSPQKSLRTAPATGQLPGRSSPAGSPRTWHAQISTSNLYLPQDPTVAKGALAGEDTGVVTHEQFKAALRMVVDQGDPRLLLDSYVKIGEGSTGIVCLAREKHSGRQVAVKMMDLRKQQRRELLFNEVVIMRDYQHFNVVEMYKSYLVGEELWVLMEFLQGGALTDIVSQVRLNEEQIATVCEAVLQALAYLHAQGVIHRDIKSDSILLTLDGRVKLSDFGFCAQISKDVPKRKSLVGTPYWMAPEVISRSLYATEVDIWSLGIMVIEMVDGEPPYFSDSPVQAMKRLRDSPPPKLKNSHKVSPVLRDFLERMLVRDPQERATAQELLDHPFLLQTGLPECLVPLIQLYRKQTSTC
# UniProt P61586: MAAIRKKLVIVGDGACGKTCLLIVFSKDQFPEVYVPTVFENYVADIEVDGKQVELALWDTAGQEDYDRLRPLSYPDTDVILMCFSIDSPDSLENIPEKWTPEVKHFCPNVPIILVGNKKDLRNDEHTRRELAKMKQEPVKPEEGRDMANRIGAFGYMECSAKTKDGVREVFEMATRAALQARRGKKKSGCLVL
# UniProt P08134: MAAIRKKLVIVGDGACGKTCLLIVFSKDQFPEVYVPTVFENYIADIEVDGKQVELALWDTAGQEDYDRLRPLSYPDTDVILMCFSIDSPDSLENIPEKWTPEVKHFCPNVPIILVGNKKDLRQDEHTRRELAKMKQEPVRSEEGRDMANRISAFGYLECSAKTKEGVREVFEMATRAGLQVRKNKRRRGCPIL
# Experiments:
# [1] = target: recombinant GST-Pak6 (from pMW-GST-Pak6, E. coli) (human) (UniProt Q9NQU5); experiment: pull-down; both purified
# [2] = target: recombinant GST-Pak6 (from pMW-GST-Pak6, E. coli) (human) (UniProt Q9NQU5); experiment: pull-down; only the target purified
# [3] = target: T1, GFP-RhoD (pCB6 GFP-RhoD WT) (mouse) (UniProt P97348); experiment: co-IP
# T1 sequence: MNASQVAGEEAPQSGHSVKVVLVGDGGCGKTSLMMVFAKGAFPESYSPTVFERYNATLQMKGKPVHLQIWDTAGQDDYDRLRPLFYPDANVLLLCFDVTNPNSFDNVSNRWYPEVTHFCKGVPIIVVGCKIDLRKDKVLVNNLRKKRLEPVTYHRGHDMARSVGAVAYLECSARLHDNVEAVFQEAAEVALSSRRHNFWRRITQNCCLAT
Substance,binding [1],binding [2],other results
recombinant His-RhoA loaded with GTPγS (from UniProt P61586 1-193),no binding,–,–
RhoA from HeLa cell lysates (from UniProt P61586 1-193),–,no binding,–
recombinant His-RhoC loaded with GTPγS (from UniProt P08134 1-193),no binding,–,–
RhoC from HeLa cell lysates (from UniProt P08134 1-193),–,no binding,–
Myc-Pak6 (pCB6-Myc-Pak6) (from UniProt Q9NQU5 1-681) (enzyme),–,–,binding [3]: binds
